Where “and” joins values, the source holds several entries; their conditions need not be identical. Equal entries are not always repeated. Out of some 400,000 compounds screened, about 13,000 (3.2%) were called active. Inconclusive results, whose numbers are uncertain, are shown with a selection of clear calls. Calls follow the shape of the dose curve; as a rule, active = well fitted cell-killing curve with a large enough effect; inconclusive = small, poorly fitted or top-dose-only effect, or effect the other way; inactive = flat fitted curve, though single readings scatter. Potencies of inconclusive entries are doubtful fits and often do not repeat.
Test: qHTS assay for MDR1-selective chemotherapeutics: Primary screen using the drug-selected MDR subline cells KB-V1; also: nearly all actives have a fitted effect of over 60% in size
Details: KB-V1 MDR cells viability, CellTiter-Glo, 72 h; activity change, negative = cytotoxicity: at 46.1 µM (top of the series)
Method in brief: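 Compound-treated KB-V1 multidrug-resistant cells, 72 h, 37 degrees C; viability by CellTiter-Glo. Fitted qHTS curves give the values.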
% is scaled to controls: 0 for no effect and ±100 for the full control effect; potency is read from the fitted curve at half-maximal effect.

Structure (SMILES)	Potency	activity change, negative = cytotoxicity
Cc1cccc(NC(=O)CN(C)C(=O)C2CCCC2)c1C	inactive	–
CC(C)c1ccc(C2c3c(-c4ccccc4O)n[nH]c3C(=O)N2Cc2ccncc2)cc1 (stereo not drawn)	inconclusive: 29.1 µM [cytotoxic, single point]	–
COc1cc(OC)cc(C(=O)NNC(=O)c2ccc3ccccc3n2)c1	inconclusive: 3.66 µM [cytotoxic, full curve]	–
N#Cc1nc(-c2ccccc2)oc1N1CCN(C(=O)c2ccco2)CC1	inconclusive: 23.1 µM [cytotoxic, single point]	–
C=CCc1cccc(/C=N/NC(=O)CCCNc2ccc(C)cc2)c1O	active: 23.1 µM	–
COc1cc(OC)cc(-c2c(-c3cccs3)c3cc(-c4ccc(OC)c(F)c4)ccc3n2C)c1	inactive	–
O=C(c1ccc(CS(=O)Cc2ccc(Cl)cc2)o1)N1CCN(c2ccccc2F)CC1 (stereo not drawn)	–	inconclusive: -17.6%
CC1(C(=O)O)COC(c2ccc([N+](=O)[O-])cc2)OC1 (stereo not drawn)	inconclusive: 14.6 µM [cytotoxic, single point]	–
COCOCCn1cc(CN2CCS(=O)(=O)N(Cc3ccc(-c4ccc(OC)cc4)cc3)C(CC(C)C)C2=O)nn1 (stereo not drawn)	inconclusive: 4.11 µM [cytotoxic, full curve, poor fit]	–
Cc1nc(Cl)cc(N/N=C/c2ccc(O)cc2)n1	inactive	–
CC(=O)c1c(C)[nH]c(C(=O)NCCc2ccccc2)c1C	inconclusive: 14.6 µM [cytotoxic, partial curve]	–
O=C(COC(=O)Cc1ccc(Cl)cc1)NCc1ccc(Cl)cc1	inconclusive: 16.4 µM [rising, partial curve, poor fit]	–
O=C(CSc1nc2ccccc2s1)Nc1ccc(N2CCOCC2)c(Cl)c1	inconclusive: 18.4 µM [cytotoxic, single point]	–
CCCN=C1N(C)C[C@@H]2[C@@H]3C(=O)N(C)C(=O)[C@@H]3[C@](C)(C(=O)OC)N12	inconclusive: 25.9 µM [rising, single point]	–
Cc1cccc(C)c1NC(=O)CN(C)C(=O)CCc1nc2sc3c(c2c(=O)[nH]1)CCCC3	inconclusive: 18.4 µM [cytotoxic, single point]	–
CCc1nc2c(OCCc3cccc(OC)c3)cccn2c1N(C)C(=O)c1cccs1	inconclusive: 2.31 µM [cytotoxic, full curve, poor fit]	–
Cn1c(C(=O)NCc2ccccn2)cc2c(=O)n(C)c3ccccc3c21	inconclusive: 18.4 µM [cytotoxic, partial curve]	–
Cc1cccc(NS(=O)(=O)c2cc(C(=O)N3CCCCCC3)ccc2C)c1	inconclusive: 6.51 µM [cytotoxic, partial curve]	–
On1c(-c2ccccc2Cl)nc2ncccc21	inconclusive: 13 µM [rising, partial curve]	–
CCNc1cc(N2CCCC2)ccc1[N+](=O)[O-]	inconclusive: 23.1 µM [cytotoxic, single point]	–
COc1ccc(CN2CCC2(C)C(=O)Nc2ccc(OC)c(OC)c2)cc1 (stereo not drawn)	inconclusive: 9.2 µM [cytotoxic, partial curve]	–
COCC(C)NC(=O)CCSc1nc(-c2ccc(OC)cc2)cc(C(F)(F)F)n1 (stereo not drawn)	inconclusive: 2.59 µM [cytotoxic, full curve, poor fit]	–
CCn1c(=O)c2sccc2n2c(CCCC(=O)NC3CCN(Cc4ccccc4)CC3)nnc12	inconclusive: 5.17 µM [rising, full curve]	–

Structure (SMILES)	Potency	activity change, negative = cytotoxicity
O=C(CSC(=S)N1CCCC1)Nc1ccc(Br)cc1Cl	inactive	–
COc1ccc(-c2cc(NC=O)c3ncc(-c4ccccc4)n3c2)cc1OC	active: 18.4 µM	–
O=C1CSc2ccc(C(=O)O)cc2N1	inconclusive: 14.6 µM [rising, partial curve]	–
CCc1ccc(S(=O)(=O)Nc2ccc(-c3ccc(N4CCCC4)nn3)cc2)cc1	inconclusive: 14.6 µM [rising, single point]	–
COc1cccc(NC(=O)c2cccc(OC)c2OC)c1	inactive	–
Cc1ccc(NC(=O)CSC(C)C(=O)OCc2cc(=O)oc3cc(O)ccc23)cc1 (stereo not drawn)	inactive	–
[N-]=[N+]=NCCN1CCN(CCc2ccccc2)CCC1=O	inconclusive: 16.4 µM [rising, single point]	–
O=c1c2ccccc2nc(-c2ccc(Cl)c(Cl)c2)n1O	inconclusive: 20.6 µM [cytotoxic, single point]	–
CC1CCCCN1CCNC(=O)c1ccc2c(c1)N(Cc1ccccc1F)C(=O)c1ccccc1S2=O (stereo not drawn)	inactive	–
Clc1ccccc1CN1CCN(/N=C/c2ccncc2)CC1	–	inconclusive: -25.6%
Cc1cc(C)c(S(=O)(=O)/N=C2/C=C(SCC(=O)O)C(=O)c3ccccc32)cc1C	inconclusive: 16.4 µM [cytotoxic, single point]	–
COc1ccc(-c2oc3ccc(N4CCOCC4)cc3c2C#Cc2ccc(N)cc2)cc1	inconclusive: 23.1 µM [cytotoxic, single point]	–
COc1cc(OC)cc(C(=O)Nc2ccc3nc(Nc4cccc(C(F)(F)F)c4)cc(C)c3c2)c1	inconclusive: 23.1 µM [cytotoxic, single point]	–
Cc1ccc(S(=O)(=O)N(CC(=O)N/N=C\c2cccs2)c2cccc3cccnc23)cc1	inconclusive: 2.31 µM [cytotoxic, full curve]	–
COC(=O)c1ccc(CNC(=O)c2cc(COc3cncc(Cl)c3)on2)cc1	inactive	–
COc1ccc(N2C(=O)/C(=C/c3ccc([N+](=O)[O-])cc3)C=C2c2ccccc2)cc1	inconclusive: 9.2 µM [cytotoxic, partial curve]	–
CCOC(=O)CN1C(=O)C2Cc3ccccc3CN2C1=S (stereo not drawn)	inactive	–
CC1CCCCC1NC(=O)CN1CCC(O)(c2ccc(F)cc2)CC1 (stereo not drawn)	inconclusive: 23.1 µM [cytotoxic, single point]	–
O=C(NNC(=O)C1CC(c2cccs2)=NO1)Nc1ccc(Cl)cc1 (stereo not drawn)	inactive	–
Cc1ccccc1CS(=O)(=O)CCC(=O)NCCN1CCN(c2cccc(Cl)c2)CC1	active: 10.3 µM	–
CCC(C(=O)NCc1ccccc1)n1c(CSCCOc2ccccc2)nc2ccccc21 (stereo not drawn)	inconclusive: 6.51 µM [cytotoxic, partial curve]	–
CCOC(=O)/C(N=Nc1c(C)n(C)n(-c2ccccc2)c1=O)=C(\C)O	inconclusive: 23.1 µM [cytotoxic, single point]	–
CC1CCCCC1NC(=O)CN1c2cccc3cccc(c23)S1(=O)=O (stereo not drawn)	inconclusive: 16.4 µM [cytotoxic, partial curve, poor fit]	–

Structure (SMILES)	Potency	activity change, negative = cytotoxicity
CCc1nc2c(OCc3ccc(C(F)(F)F)cc3)cccn2c1N(C=O)Cc1ccc(OC)cc1	inconclusive: 20.6 µM [cytotoxic, single point]	–
CCCCn1c(SCC(=O)NC(C)CC)nc2ccc(N3CCOCC3)cc2c1=O (stereo not drawn)	active: 3.26 µM	–
COc1ccc(Nc2cc(=O)n(-c3ccccc3)c3c2c(=O)n(C)c(=O)n3C)cc1	–	inconclusive: 7.57%
CCN(CC)C(=O)C1CCN(c2nnc(C)c3c(C)n(-c4ccc(Cl)cc4)nc23)CC1	inconclusive: 0.0058 µM [cytotoxic, full curve, poor fit]	–
O=C(CCCn1c(=S)[nH]c2cc3c(cc2c1=O)OCO3)NCCc1ccccc1Cl	inactive	–
O=C(NC(=S)Nc1ccc(N2CCCCC2)cc1)c1ccco1	active: 8.2 µM	–
Cc1ccc(C)c(N2CCN(CCCNC(=O)Cn3cc4c(n3)CCCCC4)CC2)c1	active: 20.6 µM	–
Cc1ncc(CN2CCCC(C(=O)Nc3ccc(-c4ccco4)cc3)C2)cn1 (stereo not drawn)	inactive	–
COc1cccc(CN(Cc2cccnc2)S(=O)(=O)c2ccc(-n3cnnn3)c(C)c2)c1	inconclusive: 10.3 µM [cytotoxic, partial curve, poor fit]	–
COC(=O)C1=C(CS(=O)(=O)c2ccc(Cl)cc2)NC(=O)NC1c1ccc(O)cc1 (stereo not drawn)	inconclusive: 8.2 µM [rising, partial curve]	–
O=C(N/N=C/c1ccc([N+](=O)[O-])o1)C1CCCC1	inactive	–
CC1=C(C(=O)N2CCOCC2)CC(CC(=O)NCCN2CCOCC2)C(=O)N1Cc1ccc(F)cc1 (stereo not drawn)	inactive	–
CCn1cnc2c(Nc3cccc(Cl)c3)nc(C#N)nc21	inconclusive: 29.1 µM [cytotoxic, single point]	–
Cc1ccccc1C(=O)Nc1nnc(S(=O)(=O)N(C)Cc2ccco2)s1	inactive	–
C=CCN(C(=O)C1CSC2(C)CCC(=O)N12)c1nc(-c2ccccc2)cs1 (stereo not drawn)	inactive	–
CCCCN(CC)Cc1ccc(CNC(=S)Nc2c(C)cc(C)cc2C)o1	inconclusive: 3.26 µM [cytotoxic, partial curve, poor fit]	–
CSc1nnc(-c2ccccc2N=Cc2c(C)[nH]n(-c3ccc4ccccc4c3)c2=O)c(=O)[nH]1	inactive	–
Cc1ccc(NC(=O)COC(=O)Cn2cnc3ccccc32)c(C)c1	inactive	–
COCCNc1oc(-c2cccs2)nc1S(=O)(=O)c1ccc(C)cc1	inconclusive: 8.2 µM [cytotoxic, partial curve]	–
COc1cccc(CN2CCCC(C(=O)Nc3ccc(-c4cscn4)cc3)C2)c1 (stereo not drawn)	active: 20.6 µM	–
CC(=O)N1CCN(CC(=O)Nc2c(Cl)ccc(C)c2Cl)CC1	inconclusive: 23.1 µM [rising, single point]	–
CCN(Cc1ccccc1)C(=O)c1nn(-c2ccc(OC)cc2)c(=O)c2c1c1ccccc1n2C	inconclusive: 25.9 µM [cytotoxic, partial curve, poor fit] and inconclusive: 18.4 µM [cytotoxic, single point]	–

Of the compounds above, these have a CF3 group:
Structure (SMILES)	Potency	activity change, negative = cytotoxicity
COCC(C)NC(=O)CCSc1nc(-c2ccc(OC)cc2)cc(C(F)(F)F)n1 (stereo not drawn)	inconclusive: 2.59 µM [cytotoxic, full curve, poor fit]	–
COc1cc(OC)cc(C(=O)Nc2ccc3nc(Nc4cccc(C(F)(F)F)c4)cc(C)c3c2)c1	inconclusive: 23.1 µM [cytotoxic, single point]	–
CCc1nc2c(OCc3ccc(C(F)(F)F)cc3)cccn2c1N(C=O)Cc1ccc(OC)cc1	inconclusive: 20.6 µM [cytotoxic, single point]	–

From PubChem BioAssay AID1347076 (National Center for Advancing Translational Sciences (NCATS), 2019)
